Test results: the supplement of paper PMC3334620
Whole data set: some 33,000 sequences, median “E-score (-0.5 to 0.5)” near -0.0034, cut for the highest 2% near 0.25. The list shows a part of the results.

target: T1, Yap3 (UniProt P38749); assay: PBM E-score (8-mer binding enrichment) (E-score (-0.5 to 0.5)); higher = stronger / more preferred TF binding; settings: protein concentration: 100 nM; construct: GST-full length
T1 sequence: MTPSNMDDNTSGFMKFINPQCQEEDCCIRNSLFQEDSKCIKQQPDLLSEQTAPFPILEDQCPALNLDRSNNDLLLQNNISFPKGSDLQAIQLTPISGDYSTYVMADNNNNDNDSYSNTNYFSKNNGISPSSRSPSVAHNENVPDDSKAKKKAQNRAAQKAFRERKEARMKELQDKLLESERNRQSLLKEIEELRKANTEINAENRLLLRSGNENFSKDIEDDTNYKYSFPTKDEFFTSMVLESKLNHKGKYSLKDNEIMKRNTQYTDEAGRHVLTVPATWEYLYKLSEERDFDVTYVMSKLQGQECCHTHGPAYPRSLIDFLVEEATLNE
Method in brief: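 The E-score, a modified Wilcoxon-Mann-Whitney statistic, was computed by the Universal PBM Analysis Suite for every ungapped eight-base word pooled with its reverse complement. Scans behind it were normalised with masliner after bound GST-tagged yeast transcription factors were detected with fluorescent anti-GST. The proteins, at about 100-200 nM, had been applied to universal all-10-mer Agilent arrays made double-stranded by primer extension.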

Sequence | PBM E-score
GATACGCC | -0.236
ACGCGTAC | -0.0646
GCCCCTAA | 0.0736
AGCACGTA | -0.0486
CAGTGTGG | -0.0835
CAAACTGC | 0.0735
GCCCGAGC | -0.117
ATCGTTAC | 0.0229
ACAATGTA | 0.0691
TCACATAA | 0.0577
ACCACGCT | -0.149
ATAGGTTG | -0.0225
GAGAGTAA | 0.142
ACATCGCA | -0.0893
CATCAGGC | -0.124
GCTTCGTA | -0.0596
CAAGTATC | 0.039
CCCCCATA | -0.287
GCCCGTTA | -0.227
GCAATACA | 0.227
CAAGATGC | 0.175
ATATGCTG | -0.0187
ACGAGGTG | -0.00588
AGTCACTA | 0.0564
ATAAAATC | 0.207

Sequence | PBM E-score
AACTTGAA | 0.179
CTTTCTGA | 0.0382
GTCAAAGA | -0.0517
GCACAGGA | -0.0578
AATCCGCT | 0.00983
AAATCACC | 0.235
CGTCGGCA | -0.0737
CGTCGCAA | 0.121
CCCTGCGA | -0.179
AGGGTGCA | -0.0855
CCTACCAA | 0.0688
CGGCGTGA | -0.0465
AGAGTGCT | -0.00235
AAGTATTC | 0.13
CTCGGTTC | -0.245
ATCATAAT | 0.293
CGGCGTTA | -0.065
ATTTGGCC | 0.0859
CAGCTCAA | 0.0484
AACGCCTT | -0.112
GGATATAC | 0.127
ATAGACAG | 0.0681
CATTCCGC | 0.0576
ACAGCTCA | -0.119
TACGTAGA | 0.0529

Sequence | PBM E-score
ATAAAAAC | 0.213
CACCAGGC | -0.16
GATAGACC | -0.00068
TATAAGGA | 0.168
TAAGTAGA | 0.109
CACCTAAG | -0.00421
ATTGAGCC | -0.0243
CAGTCTCC | -0.0846
CCTCCTAA | -0.198
CAGTTTGC | 0.124
CATAAAGG | 0.00277
GACTACGA | -0.0664
GAAGCCCA | -0.181
GATGTACC | 0.0745
AACCGGGC | -0.261
ATGATGCC | -0.0842
ATTCACGC | 0.0462
CCTTTGAG | -0.131
CTCATATC | -0.0466
CCGGCAGG | -0.194
TATGGTCA | 0.0184
CCGGTGCA | -0.251
AGCTGTAA | 0.0402
ATCTCAGA | -0.021
CACCGATA | 0.00145

Sequence | PBM E-score
CCCTTCAG | -0.0588
AGTTATGG | 0.0413
ATCCTGGG | -0.149
CCATTTAG | 0.00911
CCGATTAG | 0.0861
AACATAAC | 0.269
CTCGGTTA | -0.0842
ACGGAAGG | -0.0813
CACCTGGA | -0.115
TCTTGTAA | 0.118
CTTACTTC | 0.176
CGAAAGTA | 0.0222
CTGTCCAA | 0.0393
GGTCTGAC | -0.0516
CCATTTCG | -0.0106
GACTCGGA | -0.181
GGGCGCCA | -0.0677
CCACCCTA | 0.0602
CCTACGAG | -0.0509
CCTAGAGA | -0.067
GATGCTCC | -0.132
AAAAACCC | -0.0375
CTAGTGTA | 0.088
GCAGCTGC | -0.301
TCGGCGCA | 0.0397

Some of the entries so far, field by field.
CTCGGTTA
  PBM E-score = -0.0842
ACGGAAGG
  PBM E-score = -0.0813

Continued:

Sequence | PBM E-score
CCCCGAGC | -0.187
CTCCGGGC | -0.188
TCAAGCCA | -0.0356
CTATCAAA | 0.155
GCGTGCCC | -0.281
GAAAGGTA | 0.148
AGATGCTG | -0.098
AAACTAGG | -0.014
CTCAAAAA | 0.0101
AGCCCTCA | -0.27
GCCCGTAC | -0.155
CCACAAAC | 0.0763
CGTTCCAA | 0.0781
TAAGAAAA | 0.156
GGTCCCCA | -0.272
GTTGAACA | -0.038
AACTTCGG | 0.13
CGCAACGA | 0.0228
ATTTCAGA | 0.0687
GTTTCATA | 0.0741
TTCGGCAA | 0.0318
CAGATGCG | -0.101
ACCGGGTC | -0.17
CGGCGTAG | -0.213
ACATTTAC | 0.0976

Sequence | PBM E-score
ACAATTGC | 0.0787
CTACGATC | -0.0231
ACTCGACA | 0.0738
CTTTATAA | 0.206
ACTGGTAT | 0.0087
CTCTGTCA | -0.0299
ATTCAGAC | 0.187
CCTAGTGA | -0.201
CGTTTTTA | 0.153
GGGCATAC | -0.18
CTAAAGGC | -0.135
GGTCTGCA | -0.0699
AAAGGGAC | -0.0721
ATTTCGGG | 0.00062
ACGCTCAT | 0.159
CGCTACGC | -0.273
ATGCACAC | 0.044
AATTCGTG | 0.0072
CGAACTTC | 0.0985
CATGATAG | 0.165
CCTTGCTC | -0.0483
CAAAGCGA | 0.0238
AACGAGAG | 0.0783
TAGAGCTA | -0.0728
AATACGGA | 0.154

Sequence | PBM E-score
GGCGCCTA | -0.145
CTTTGTTC | 0.0752
AAGGGTGT | 0.0156
AGATTAAT | 0.194
CCCACGGA | -0.256
ATGGTACG | 0.192
GGTCTCAC | -0.0968
CTCGGACC | -0.0993
GAATAATC | 0.217
ACCCCAGA | -0.0923
AGCTGCCG | -0.0538
ACCCGCCA | -0.0128
AGACCCAG | -0.0787
GTCTACAA | -0.035
AACCGTAA | 0.0667
GTCTGAAA | 0.0573
CAGATTAA | 0.111
CAGCCTGC | -0.218
CTAAGCGC | -0.012
CCGTTCCG | 0.0238
CGATGTAC | 0.118
AAGGACGG | -0.175

Shown tab-delimited: entries from further up
Sequence	PBM E-score
GGTCTCAC	-0.0968
CTCGGACC	-0.0993
GAATAATC	0.217
ACCCCAGA	-0.0923
